Patent publication US20110263483A1
These are yes or no findings as the source states them, for the method shown. For some assays here: Binding seen in cells or lysates may run through a third protein. Some results given as binding are weak or reduced against the parent protein; the word gives no strength. Sequences can lack the tags named with a protein. Values belong to the molecule of their own block, whether it stands above or below them.

Amino acid sequences for entries named in this document (tags omitted). A change or cut given only in a name is not applied to a line headed by its entry.
UniProt Q8VI36: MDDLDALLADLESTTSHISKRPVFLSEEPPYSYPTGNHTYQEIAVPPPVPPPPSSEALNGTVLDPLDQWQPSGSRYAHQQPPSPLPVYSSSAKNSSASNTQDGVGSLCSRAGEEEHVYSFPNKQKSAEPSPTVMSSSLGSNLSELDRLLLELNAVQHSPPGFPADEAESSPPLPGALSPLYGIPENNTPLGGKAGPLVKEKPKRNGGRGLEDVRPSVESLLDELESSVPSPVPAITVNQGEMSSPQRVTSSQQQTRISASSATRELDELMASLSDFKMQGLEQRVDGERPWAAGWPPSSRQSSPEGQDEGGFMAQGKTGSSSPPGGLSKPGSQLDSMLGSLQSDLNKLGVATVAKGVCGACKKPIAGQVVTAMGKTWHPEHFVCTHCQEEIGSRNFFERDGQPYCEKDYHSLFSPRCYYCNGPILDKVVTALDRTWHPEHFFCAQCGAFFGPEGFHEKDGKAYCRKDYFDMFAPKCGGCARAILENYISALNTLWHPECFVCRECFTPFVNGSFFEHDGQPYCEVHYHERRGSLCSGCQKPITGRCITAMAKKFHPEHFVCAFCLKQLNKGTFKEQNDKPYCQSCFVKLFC
UniProt Q62219: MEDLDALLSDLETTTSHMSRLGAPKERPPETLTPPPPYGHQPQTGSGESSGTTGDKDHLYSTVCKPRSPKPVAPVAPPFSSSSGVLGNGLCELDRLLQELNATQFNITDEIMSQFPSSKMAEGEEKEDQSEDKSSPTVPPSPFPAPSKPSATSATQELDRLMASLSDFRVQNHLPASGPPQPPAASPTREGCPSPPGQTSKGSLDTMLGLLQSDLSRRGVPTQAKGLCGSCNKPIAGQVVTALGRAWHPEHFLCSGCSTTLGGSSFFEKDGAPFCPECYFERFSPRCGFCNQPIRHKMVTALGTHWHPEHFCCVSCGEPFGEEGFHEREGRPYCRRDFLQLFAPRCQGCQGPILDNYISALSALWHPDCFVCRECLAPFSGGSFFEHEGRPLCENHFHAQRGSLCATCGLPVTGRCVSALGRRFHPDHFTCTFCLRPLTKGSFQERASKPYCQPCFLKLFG

Tests used:
[1] = target: T1, Robo4 cytoplasmic tail-HA (UniProt Q8C310); assay: co-immunoprecipitation with HA antibodies, western blot with V5 antibodies (FIG. 3C)
T1 sequence (looked up): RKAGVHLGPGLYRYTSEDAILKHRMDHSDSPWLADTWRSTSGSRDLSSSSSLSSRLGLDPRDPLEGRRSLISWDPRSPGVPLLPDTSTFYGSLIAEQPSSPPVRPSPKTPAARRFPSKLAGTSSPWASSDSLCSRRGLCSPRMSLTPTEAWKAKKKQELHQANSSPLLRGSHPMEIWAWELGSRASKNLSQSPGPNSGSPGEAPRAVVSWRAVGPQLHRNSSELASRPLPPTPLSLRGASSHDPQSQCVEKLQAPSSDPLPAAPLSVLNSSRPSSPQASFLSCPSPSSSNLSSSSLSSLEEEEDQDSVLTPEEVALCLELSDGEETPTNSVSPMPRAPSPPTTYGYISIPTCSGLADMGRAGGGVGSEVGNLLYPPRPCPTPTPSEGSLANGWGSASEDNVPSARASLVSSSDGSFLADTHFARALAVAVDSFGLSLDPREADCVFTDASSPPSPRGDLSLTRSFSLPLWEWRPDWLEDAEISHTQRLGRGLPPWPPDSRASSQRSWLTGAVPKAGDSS

[2] = target: T1, Robo4 cytoplasmic tail-HA; assay: co-immunoprecipitation with HA antibodies, western blot with V5 antibodies
[3] = target: T1, Robo4 cytoplasmic tail-HA; assay: co-immunoprecipitation with HA antibodies, western blot with V5 antibodies (FIG. 3A)
[4] = target: T1, Robo4 cytoplasmic tail-HA; assay: co-immunoprecipitation from co-transfected HEK 293 cells
full length Robo4-HA [5] = target: T2, full length Robo4-HA (UniProt Q8C310); assay: immunoprecipitation of combined HEK cell lysates with anti-HA, western blot with anti-myc
T2 sequence (looked up): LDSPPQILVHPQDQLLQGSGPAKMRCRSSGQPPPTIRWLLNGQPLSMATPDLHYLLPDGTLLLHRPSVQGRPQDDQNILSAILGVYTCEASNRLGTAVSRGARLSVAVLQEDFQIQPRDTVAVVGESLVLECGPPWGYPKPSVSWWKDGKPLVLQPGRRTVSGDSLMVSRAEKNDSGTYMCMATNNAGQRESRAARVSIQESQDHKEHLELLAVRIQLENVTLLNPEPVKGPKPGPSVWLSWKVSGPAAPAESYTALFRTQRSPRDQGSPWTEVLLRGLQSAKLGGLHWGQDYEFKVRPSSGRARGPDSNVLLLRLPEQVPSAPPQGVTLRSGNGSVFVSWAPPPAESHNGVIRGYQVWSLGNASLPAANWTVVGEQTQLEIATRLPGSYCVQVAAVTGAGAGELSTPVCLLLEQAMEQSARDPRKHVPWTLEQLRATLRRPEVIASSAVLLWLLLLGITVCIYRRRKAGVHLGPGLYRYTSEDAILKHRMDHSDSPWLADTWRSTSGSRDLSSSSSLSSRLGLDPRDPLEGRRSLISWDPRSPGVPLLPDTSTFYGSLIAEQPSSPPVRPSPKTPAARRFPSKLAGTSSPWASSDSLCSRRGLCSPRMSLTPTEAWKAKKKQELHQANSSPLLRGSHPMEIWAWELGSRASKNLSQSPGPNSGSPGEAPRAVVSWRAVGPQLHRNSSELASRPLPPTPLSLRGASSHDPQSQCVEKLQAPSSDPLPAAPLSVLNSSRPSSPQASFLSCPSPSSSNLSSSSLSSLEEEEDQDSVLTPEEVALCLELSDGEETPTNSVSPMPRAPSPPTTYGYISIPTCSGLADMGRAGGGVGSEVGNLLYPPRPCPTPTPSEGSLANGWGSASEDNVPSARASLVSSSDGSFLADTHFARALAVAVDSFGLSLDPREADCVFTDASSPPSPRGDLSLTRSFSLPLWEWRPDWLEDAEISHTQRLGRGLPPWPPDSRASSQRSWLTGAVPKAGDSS

full length Robo4-HA [6] = target: T2, full length Robo4-HA; assay: immunofluorescence of Slit-myc conditioned medium on Robo4-HEK cells, anti-myc and Alexa 594 anti-mouse antibody
full length Robo4-HA [7] = target: T2, full length Robo4-HA; assay: immunofluorescence of Slit-myc conditioned medium on Robo4-HEK cells (FIG. 17C-F)
[8] = target: T3, N-terminal soluble ectodomain of Robo4 tagged with the HA epitope (NRobo4-HA) (UniProt Q8C310); assay: immunoprecipitation of combined conditioned media with anti-HA, western blot with anti-myc
T3 sequence (looked up): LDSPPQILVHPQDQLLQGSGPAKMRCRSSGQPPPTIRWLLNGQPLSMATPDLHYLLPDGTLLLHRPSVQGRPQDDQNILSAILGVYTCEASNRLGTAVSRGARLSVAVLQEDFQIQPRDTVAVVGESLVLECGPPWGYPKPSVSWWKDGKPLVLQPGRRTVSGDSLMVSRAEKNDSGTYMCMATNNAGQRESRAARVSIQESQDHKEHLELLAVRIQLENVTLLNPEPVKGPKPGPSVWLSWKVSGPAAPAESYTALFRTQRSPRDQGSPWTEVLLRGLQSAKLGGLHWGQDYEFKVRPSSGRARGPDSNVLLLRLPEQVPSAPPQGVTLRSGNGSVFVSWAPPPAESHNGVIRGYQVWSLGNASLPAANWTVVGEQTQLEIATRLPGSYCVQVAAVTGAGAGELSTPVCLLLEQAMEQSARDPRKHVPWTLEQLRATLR

[9] = target: T3, N-terminal soluble ectodomain of Robo4 tagged with the HA epitope (NRobo4-HA); assay: immunoprecipitation of combined conditioned media with anti-HA, western blot with anti-myc (FIG. 17B)
full length Robo4-HA [10] = target: T2, full length Robo4-HA; assay: immunoprecipitation of combined HEK cell lysates with anti-HA, western blot with anti-myc (FIG. 17A)

binding [1]: binds
binding [2]: binds
Molecule: paxillin-V5 (murine paxillin in pcDNA3-V5) (from UniProt Q8VI36 1-591)

binding [3]: binds
binding [2]: binds
Molecule: Hic-5-V5 (murine Hic-5 in pcDNA3-V5) (from UniProt Q62219 1-461)

binding [4]: binds
Molecule: paxillin-Lim (from UniProt Q8VI36 356-591)

binding (full length Robo4-HA [5]): binds
binding (full length Robo4-HA [6]): binds
binding (full length Robo4-HA [7]): binds
binding [8]: binds
binding [9]: binds
binding (full length Robo4-HA [10]): binds
B1: Slit tagged with a myc epitope (Slit-myc) (ligand, UniProt O94813 31-1529, looked up, not shown: small tags and cut ends)
chain: QCSCSGSTVDCHGLALRSVPRNIPRNTERLDLNGNNITRITKTDFAGLRHLRVLQLMENKISTIERGAFQDLKELERLRLNRNHLQLFPELLFLGTAKLYRLDLSENQIQAIPRKAFRGAVDIKNLQLDYNQISCIEDGAFRALRDLEVLTLNNNNITRLSVASFNHMPKLRTFRLHSNNLYCDCHLAWLSDWLRQRPRVGLYTQCMGPSHLRGHNVAEVQKREFVCSGHQSFMAPSCSVLHCPAACTCSNNIVDCRGKGLTEIPTNLPETITEIRLEQNTIKVIPPGAFSPYKKLRRIDLSNNQISELAPDAFQGLRSLNSLVLYGNKITELPKSLFEGLFSLQLLLLNANKINCLRVDAFQDLHNLNLLSLYDNKLQTIAKGTFSPLRAIQTMHLAQNPFICDCHLKWLADYLHTNPIETSGARCTSPRRLANKRIGQIKSKKFRCSAKEQYFIPGTEDYRSKLSGDCFADLACPEKCRCEGTTVDCSNQKLNKIPEHIPQYTAELRLNNNEFTVLEATGIFKKLPQLRKINFSNNKITDIEEGAFEGASGVNEILLTSNRLENVQHKMFKGLESLKTLMLRSNRITCVGNDSFIGLSSVRLLSLYDNQITTVAPGAFDTLHSLSTLNLLANPFNCNCYLAWLGEWLRKKRIVTGNPRCQKPYFLKEIPIQDVAIQDFTCDDGNDDNSCSPLSRCPTECTCLDTVVRCSNKGLKVLPKGIPRDVTELYLDGNQFTLVPKELSNYKHLTLIDLSNNRISTLSNQSFSNMTQLLTLILSYNRLRCIPPRTFDGLKSLRLLSLHGNDISVVPEGAFNDLSALSHLAIGANPLYCDCNMQWLSDWVKSEYKEPGIARCAGPGEMADKLLLTTPSKKFTCQGPVDVNILAKCNPCLSNPCKNDGTCNSDPVDFYRCTCPYGFKGQDCDVPIHACISNPCKHGGTCHLKEGEEDGFWCICADGFEGENCEVNVDDCEDNDCENNSTCVDGINNYTCLCPPEYTGELCEEKLDFCAQDLNPCQHDSKCILTPKGFKCDCTPGYVGEHCDIDFDDCQDNKCKNGAHCTDAVNGYTCICPEGYSGLFCEFSPPMVLPRTSPCDNFDCQNGAQCIVRINEPICQCLPGYQGEKCEKLVSVNFINKESYLQIPSAKVRPQTNITLQIATDEDSGILLYKGDKDHIAVELYRGRVRASYDTGSHPASAIYSVETINDGNFHIVELLALDQSLSLSVDGGNPKIITNLSKQSTLNFDSPLYVGGMPGKSNVASLRQAPGQNGTSFHGCIRNLYINSELQDFQKVPMQTGILPGCEPCHKKVCAHGTCQPSSQAGFTCECQEGWMGPLCDQRTNDPCLGNKCVHGTCLPINAFSYSCKCLEGHGGVLCDEEEDLFNPCQAIKCKHGKCRLSGLGQPYCECSSGYTGDSCDREISCRGERIRDYYQKQQGYAACQTTKKVSRLECRGGCAGGQCCGPLRSKRRKYSFECTDGSSFVDEVEKVVKCGCTRCVS
